Laboratory results: PMC5088412
These are yes or no findings as the source states them, for the method shown. Binding seen in cells or lysates may run through a third protein. These calls come from enrichment with a bait or labelling near it, and not all partners need be listed. Values belong to the molecule of their own block, whether it stands above or below them.

Protein sequences, listed by entry. Tags and fused reporters are not part of them.
UniProt Q91YN9: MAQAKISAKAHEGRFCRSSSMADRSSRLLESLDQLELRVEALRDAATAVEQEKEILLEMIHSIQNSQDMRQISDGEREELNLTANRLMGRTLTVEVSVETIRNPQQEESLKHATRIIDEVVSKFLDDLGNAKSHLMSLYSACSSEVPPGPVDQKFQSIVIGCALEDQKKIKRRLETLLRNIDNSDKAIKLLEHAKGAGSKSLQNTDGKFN
UniProt P60122: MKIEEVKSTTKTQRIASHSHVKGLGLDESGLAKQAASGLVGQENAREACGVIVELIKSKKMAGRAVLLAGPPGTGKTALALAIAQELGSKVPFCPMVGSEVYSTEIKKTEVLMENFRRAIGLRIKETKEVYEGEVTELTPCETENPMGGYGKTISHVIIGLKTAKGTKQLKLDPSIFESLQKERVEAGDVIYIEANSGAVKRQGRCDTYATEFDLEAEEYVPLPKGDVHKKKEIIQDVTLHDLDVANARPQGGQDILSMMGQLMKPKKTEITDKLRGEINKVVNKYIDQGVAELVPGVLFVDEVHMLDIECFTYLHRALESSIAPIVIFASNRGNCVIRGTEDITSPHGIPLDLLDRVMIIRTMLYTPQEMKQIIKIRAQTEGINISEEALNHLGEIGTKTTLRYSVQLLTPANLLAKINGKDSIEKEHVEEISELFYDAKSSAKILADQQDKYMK

Molecular target: mutp53 R172H (mouse) (mouse (endogenous in thymic lymphomas of R172H knock-in mice)) (UniProt P02340)
Assay: affinity purification with mass spectrometry; IP with p53 antibody from thymic lymphomas (and normal thymus) of mutp53 R172H knock-in mice, LC-MS/MS

Molecule: BAG2 (mouse) (from UniProt Q91YN9 1-210)
binding: binds

B2: BAG5 (mouse) (protein, UniProt Q8CI32 1-447)
chain: MDMGNQHPSISRLQEIQREVKAIEPQVVGFSGLSDDKNYKRLERILTKQLFEIDSVDTEGKGDIQQARKRAAQETERLLKELEQNANHPHRIEIQNIFKEAQALVKDKIVPFYSGGNCVTDEFEEGIQDIILRLTHVKTGGKVSLRKARYRTLTKICAVQEVIEDCMKKQPSLPLSEDVHPSVAKINSVMCEVNKARGTLIALLMGVDSSETCRHLSCVLSGLIADLDALDVCGRTEIRNYRREVVEDINKLLKYLDLEEEADSTHAFDLGQNHSIIKIENVLKRMREIKNELLQAQSPPELYLRAKTELQGLIGQLDEVSLEKNPCIREARRRAVIEVQILITYLDLKEALEKRKLFPCEEHPPHKAVWEILGNLSEILGEVLSFGGNRTDKNYIRLEELLTKQLLALDAVDPQGEEKCKAARKQAVKLAQNILSYLDMKSDEWEY
binding: binds

The remaining lines, values ahead:

binding: binds
Molecule: Pontin (from UniProt P60122 1-456)

binding: binds
B1: Cct8 (protein, UniProt P42932 1-548)
chain: MALHVPKAPGFAQMLKDGAKHFSGLEEAVYRNIQACKELAQTTRTAYGPNGMNKMVINRLEKLFVTNDAATILRELEVQHPAAKMIVMASHMQEQEVGDGTNFVLVFAGALLELAEELLRIGLSVSEVISGYEIACKKAHEILPELVCCSAKNLRDVDEVSSLLRTSIMSKQYGSETFLAKLIAQACVSIFPDSGNFNVDNIRVCKILGSGIYSSSVLHGMVFKKETEGDVTSVKDAKIAVYSCPFDGMITETKGTVLIKTAEELMNFSKGEENLMDAQVKAIAGTGANVIVTGGKVADIALHYANKYNIMLVRLNSKWDLRRLCKTVGATALPKLTPPVQEEMGHCDSVYLSEVGDTQVVVFKHEKEDGAISTIVLRGSTDNLMDDIERAVDDGVNTFKVLTRDKRLVPGGGATEIELAKQITSYGETCPGLEQYAIKKFAEAFEAIPRALAENSGVKANEVISKLYSVHQEGNKNVGLDIEAEVPAVKDMLEASILDTYLGKYWAIKLATNAAVTVLRVDQIIMAKPAGGPKPPSGKKDWDDDQND
